Experimental data as given in PubChem BioAssay AID2685 (National Center for Advancing Translational Sciences (NCATS), 2010).
This is one part of the list. Shown are side measurements of this screen, not its main read-out; they come without a call. Compounds called inactive in the main read-out are mostly missing here. Potencies come from curve fits of mixed quality, noted in brackets.

Assay: qHTS Assay for Lipid Storage Modulators in Drosophila S3 Cells;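 for cell number change: cells counted by Cell Tracker Red CMTPX staining in the red channel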
Conditions: BODIPY lipid droplet fluorescence, 18-24 h; for cell number change: measured here: cell count max response, cells fed with added oleic acid
Procedure, shortened: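 Drosophila S3 cells got compounds at several concentrations plus oleic acid (400 uM solution). Laser-scanning cytometry with 488 nm excitation read lipid droplets at 500-530 nm and cells at 575-640 nm. Percent activity was relative to 20 uM Triacsin C.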

[1] = measured here: lipid fluorescence (Fed channel) AC50, cells fed with added oleic acid
[2] = measured here: cell number channel AC50, cells fed with added oleic acid

Row | SMILES | cell number change [%] | AC50 [1] | AC50 [2]
1 | Cc1ccc(S(=O)(=O)NCc2ccccc2)cc1C(=O)NC1CCCCC1 | -21.5 | 35.5 µM [falling, single point] | –
2 | COCc1c(C(=O)N/N=C/c2ccc(C)o2)nnn1-c1nonc1N | -7.62 | 0.206 µM [falling, single point] | –
3 | Cn1c(=O)[nH]c(=O)c2c1nc(N1CCCCCC1)n2CCCSc1nnnn1-c1ccccc1 | 18.9 | 3.66 µM [rising, partial curve] | 2.59 µM [rising, single point]
4 | Cc1ncc(CO)c(/C=N/Nc2ccc(C(F)(F)F)cn2)c1O | 8.82 | 0.231 µM [falling, partial curve, poor fit] | –
5 | Cc1nnc(Cn2cnc3c2c(=O)n(C)c(=O)n3C)o1 | – | 2.91 µM [rising, single point] | –
6 | CCOC(=O)CNC(=O)CNC(=O)c1nn(-c2ccc(OC)c(OC)c2)c(=O)c2ccccc12 | -2.13 | – | 0.731 µM [falling, single point]
7 | Cc1ccc(C(=O)Nc2cccc3ncccc23)cc1[N+](=O)[O-] | 167 | – | –
8 | Cc1cccc(NC(=S)N2CCC(C(N)=O)(N3CCCCC3)CC2)c1C | 24.3 | 0.517 µM [falling, single point] | –
9 | CCc1ccccc1NNC(=O)c1cc(C)on1 | 13.9 | 0.366 µM [rising, full curve, poor fit] | –
10 | COc1ccc(NC(=O)CSc2nnc(NC(C)=O)s2)c([N+](=O)[O-])c1 | -35.8 | 29.1 µM [falling, single point] | 29.1 µM [falling, single point]
11 | CCCN(CC(=O)Nc1ccccc1C)C(=O)c1ccc(NC2CC2)c([N+](=O)[O-])c1 | 47 | – | 1.84 µM [rising, full curve]
12 | NS(=O)(=O)c1cccc(NC(=O)CSc2n[nH]c(-c3cccs3)n2)c1 | 18.9 | 16.4 µM [rising, partial curve, poor fit] | –
13 | CC(C)(C)OC(=O)N[C@@H](/C=C/c1ccccc1)C(=O)OC(C)(C)C | -4.14 | 0.00461 µM [rising, full curve, poor fit] | –
14 | O=S(=O)(NCc1ccccc1)[C@@H]1CC2C=CC1C2 (some centres undefined) | 5.78 | 5.8 µM [rising, full curve, poor fit] | –
15 | Cc1ccc(C)c(NC(=S)NCc2ccc3[nH]c4c(c3c2)CCCC4)c1 | -69.8 | 16.4 µM [falling, partial curve] | 14.6 µM [falling, partial curve]
16 | COc1ccc(/C=C\C(=O)NCC(=O)N/N=C/c2cccc(OC)c2O)cc1 | 28.7 | – | –
17 | COc1ccc(N(CC(=O)Nc2ccc3c(c2)OCCO3)S(=O)(=O)c2cccnc2)cc1 | 73.8 | 0.291 µM [rising, full curve] | 0.259 µM [rising, full curve]
18 | CC(=O)c1cnc(Nc2nc(C)c3ccc(C)cc3n2)nc1C | 36.6 | – | 10.3 µM [rising, single point]
19 | CC(=O)Nc1ccc(S(=O)(=O)Nc2ccc(N3CCOCC3)cc2)cc1 | 11.9 | 29.1 µM [rising, single point] | –
20 | O=C(CN1C(=O)/C(=C\c2ccco2)SC1=S)Nc1ccc(O)cc1C(=O)O | 11.6 | – | –

Row | SMILES | cell number change [%] | AC50 [1] | AC50 [2]
21 | CC1(c2ccccc2)CC2CC(c3ccccc3)N1O2 (centres undefined) | -16.5 | 6.51 µM [falling, single point] | 1.46 µM [falling, partial curve]
22 | Cc1ccc(Cn2nnc3c(=O)[nH]c(C4CCCN(S(=O)(=O)c5ccccc5F)C4)nc32)cc1 (centres undefined) | 115 | 6.51 µM [rising, single point] | 23.1 µM [rising, partial curve]
23 | O=S(=O)(N1CCCCC1)n1nnc2ccccc21 | -89.3 | – | 2.59 µM [falling, full curve]
24 | Cc1cccc(C)c1NC(=O)CN(C)C(=O)c1cc(S(=O)(=O)N2CCOCC2)ccc1N1CCCC1 | -19.3 | – | –
25 | COC(=O)c1ccccc1NC(=O)C1CCN(C(=O)Cc2ccccc2)CC1 | 19.5 | – | –
26 | Nc1ccc(O)c2c(=O)cc(-c3ccccc3Cl)oc12 | 0.0128 | 29.1 µM [rising, single point] | –
27 | COc1ccc(-n2nc(C(=O)NCC(=O)NCCN(C)C)c3ccccc3c2=O)c(OC)c1 | – | 29.1 µM [rising, single point] | 0.58 µM [rising, single point]
28 | CCn1c(-c2cc(-c3ccccc3)sc2N)n[nH]c1=S | -21.1 | 32.6 µM [falling, single point] | –
29 | COC(=O)/C(C#N)=C/c1c(N2CCN(c3cccc(Cl)c3)CC2)nc2c(C)cccn2c1=O | 59.5 | – | 18.4 µM [rising, single point]
30 | COc1ccc(-c2c(C#Cc3ccsc3)c3cc(-c4ccc5c(c4)OCO5)ccc3n2C)cc1 | 21.7 | 20.6 µM [rising, single point] | –
31 | CCOC(=O)c1c(NC(=O)CSc2nnc(C)c(=O)[nH]2)sc2c1CCCC2 | 59.2 | – | 18.4 µM [rising, partial curve]
32 | COc1ccc(N(CC(=O)NCc2ccco2)S(=O)(=O)c2ccc(C)cc2)cc1OC | 94.3 | 16.4 µM [rising, partial curve] | –
33 | Cc1ccccc1CCN(C(=O)c1csnn1)C(C(=O)NC1CCCC1)c1ccco1 (centres undefined) | – | – | 2.06 µM [rising, partial curve, poor fit]
34 | CCCCCOc1ccc(C(=O)CCC(=O)N2CCCC2)cc1 | -13.7 | – | 0.0231 µM [falling, single point]
35 | Cc1cc(Oc2ccccc2)nc(SCC(=O)Nc2ccc(Cl)c(Cl)c2)n1 | 20 | 14.6 µM [rising, partial curve] | –
36 | Cc1cccnc1NC(=O)c1c(O)c2cccc3c2n(c1=O)CCC3 | -8.09 | 0.92 µM [rising, full curve, poor fit] | –
37 | Cc1cc(NC(=O)C2CCCN(S(=O)(=O)c3c(C)noc3C)C2)no1 (centres undefined) | 19 | 16.4 µM [rising, single point] | –
38 | CCOC(=O)N1CCN(CC(=O)Nc2ccc([N+](=O)[O-])cc2C(=O)Nc2ccccc2F)CC1 | 22 | 2.31 µM [rising, partial curve] | –
39 | COc1ccc(C)cc1NS(=O)(=O)c1cn(C)nc1C | 32.9 | – | 0.116 µM [falling, full curve, poor fit]
40 | COc1ccccc1CNC(=O)CCCC(=O)n1ncc2cc(C)ccc21 | -6.05 | 5.17 µM [falling, single point] | –

Molecules above that have a thiophene ring, fused or not (4):
Row | SMILES | cell number change [%] | AC50 [1] | AC50 [2]
12 | NS(=O)(=O)c1cccc(NC(=O)CSc2n[nH]c(-c3cccs3)n2)c1 | 18.9 | 16.4 µM [rising, partial curve, poor fit] | –
28 | CCn1c(-c2cc(-c3ccccc3)sc2N)n[nH]c1=S | -21.1 | 32.6 µM [falling, single point] | –
30 | COc1ccc(-c2c(C#Cc3ccsc3)c3cc(-c4ccc5c(c4)OCO5)ccc3n2C)cc1 | 21.7 | 20.6 µM [rising, single point] | –
31 | CCOC(=O)c1c(NC(=O)CSc2nnc(C)c(=O)[nH]2)sc2c1CCCC2 | 59.2 | – | 18.4 µM [rising, partial curve]

More results.

Row | SMILES | cell number change [%] | AC50 [1] | AC50 [2]
41 | COc1ccc(CNc2ncnc3sccc23)cc1 | 10.5 | – | 0.0291 µM [rising, full curve, poor fit]
42 | C=CCC(Nc1ccccc1)c1cccc(OC)c1OC (centres undefined) | 9.59 | 0.92 µM [rising, partial curve] | –
43 | O=C(Nc1ccc(Br)cc1Br)C1CC(=O)N(Cc2ccccc2)C1 (centres undefined) | 23.8 | 4.11 µM [rising, full curve, poor fit] | –
44 | CCOC(=O)c1c(N)sc2c(NC(C)=O)cccc12 | -16.8 | 10.3 µM [rising, partial curve, poor fit] | –
45 | CCCOC1CCCN(Cc2nc(-c3cnccn3)no2)C1 (centres undefined) | – | 0.103 µM [rising, full curve, poor fit] | –
46 | O=C1CN(C(=O)c2c(F)cccc2F)C(c2ccc(F)cc2)c2cc(F)ccc2N1 (centres undefined) | 21.6 | – | –
47 | COc1cccc(Nc2nc3ccccc3n3cnnc23)c1 | -41 | 4.11 µM [falling, single point] | 9.2 µM [falling, partial curve]
48 | O=C1C=C(NCCN2CCOCC2)C(=O)c2cnccc21 | – | 5.17 µM [falling, partial curve] | –
49 | NNC(=O)c1oc2nc(-c3ccc(Cl)cc3)cc(-c3ccccc3)c2c1N | -31.5 | 3.66 µM [falling, partial curve] | 32.6 µM [falling, single point]
50 | COc1ccc2oc(-c3ccc(NC(=O)c4ccc(N5CCOCC5)c([N+](=O)[O-])c4)cc3)nc2c1 | -13.3 | 11.6 µM [falling, single point] | –
51 | CC(C)C[C@H]1C(=O)N2CCC[C@H]2[C@]2(O)O[C@](NC(=O)[C@@H]3C=C4c5cccc6[nH]c(Br)c(c56)CC4N(C)C3)(C(C)C)C(=O)N12 (some centres undefined) | -31.1 | 0.00461 µM [falling, full curve, poor fit] | 29.1 µM [falling, single point]
52 | COc1cccc(C2C(C#N)=C(N)N(N(C)C)C3=C2C(=O)CCC3)c1OC (centres undefined) | 15.3 | – | –
53 | O=C(Nc1ccc(F)c(Cl)c1)C1CCCCC1 | -34.1 | – | 6.51 µM [falling, partial curve, poor fit]
54 | CC(C)(O)C(=O)NNC(=S)NCc1ccco1 | 17.3 | 0.1 µM [rising, full curve, poor fit] | –
55 | COc1ccc2cc(C(=O)C3CCCN(C(=O)C4=NN(C)C(=O)CC4)C3)ccc2c1 (centres undefined) | 13.9 | 6.51 µM [rising, single point] | –
56 | Cc1ccccc1C(=O)N1CCN(S(=O)(=O)c2ccccc2)CC1 | 3.96 | 29.1 µM [rising, single point] | –
57 | CCOC(=O)/C=C1\NC(C)(C)Cc2cc(OC)c(O)cc21 | -56.9 | 0.366 µM [falling, full curve] | 32.6 µM [falling, partial curve, poor fit]
58 | O=C(O)c1cccc(N/N=C(\N=Nc2ccccc2)c2ccccc2)c1 | 17.9 | – | –
